# Results taken from publication PMC3364120 (British Journal of Cancer, 2012).
# Where two headings read alike, the source gives them in different places.
# Columns and labels:
# Experiment in all cases: cells
# [1] = tested on: phosphorylated Crkl (p-Crkl); settings: Homo sapiens, K562, 2 h, read-out: IC50imatinib, K562, no NSAIDs
# [2] = tested on: phosphorylated Crkl (p-Crkl); settings: Homo sapiens, KU812, 2 h, read-out: IC50imatinib, KU812, no NSAIDs
# [3] = tested on: phosphorylated Crkl (p-Crkl); settings: Homo sapiens
structure (smiles),measurement,setting,value
Cc1ccc(NC(=O)c2ccc(CN3CCN(C)CC3)cc2)cc1Nc1nccc(-c2cccnc2)n1 [imatinib],IC50,[1],5.7 ± 0.8 µM
same,IC50,[2],3.5 ± 0.6 µM
same,IC50,"[3]; 2 h, read-out: range of IC50imatinib",0.25 to 1.15 µM
same,IC50,[3]; read-out: median IC50imatinib,1.2 µM
same,IC50,[3]; read-out: range of IC50imatinib,0.5 to 1.7 µM
